Measured values taken from patent US7186551B1, “3′-phosphoadenosine -5′-phosphosulfate synthetase 2 (PAPSS2) sequence variants” (Mayo Foundation for Medical Education and Research, priority 2001, dated 2007).
Residue numbers refer to the chain shown, from its start.

B1: Glu10Lys: PAPSS2 polypeptide allozyme having a lysine at amino acid residue 10 in place of glutamic acid (adenine at nucleotide 28) (protein)
chain: MSGIKKQKTKNQQKSTNVVYQAHHVSRNKRGQVVGTRGGFRGCTVWLTGLSGAGKTTISFALEEYLVSHAIPCYSLDGDNVRHGLNRNLGFSPGDREENIRRIAEVAKLFADAGLVCITSFISPFAKDRENARKIHESAGLPFFEIFVDAPLNICESRDVKGLYKRARAGEIKGFTGIDSDYEKPETPERVLKTNLSTVSDCVHQVVELLQEQNIVPYTIIKDIHELFVPENKLDHVRAEAETLPSLSITKLDLQWVQVLSEGWATPLKGFMREKEYLQVMHFDTLLDDGVINMSIPIVLPVSAEDKTRLEGCSKFVLAHGGRRVAILRDAEFYEHRKEERCSRVWGTTCTKHPHIKMVMESGDWLVGGDLQVLEKIRWNDGLDQYRLTPLELKQKCKEMNADAVFAFQLRNPVHNGHALLMQDTCRRLLERGYKHPVLLLHPLGGWTKDDDVPLDWRMKQHAAVLEEGVLDPKSTIVAIFPSPMLYAGPTEVQWHCRSRMIAGANFYIVGRDPAGMPHPETKKDLYEPTHGGKVLSMAPGLTSVEIIPFRVAAYNKAKKAMDFYDPARHNEFDFISGTRMRKLAREGENPPDGFMAPKAWKVLTDYYRSLEKN
B2: Val291Met: PAPSS2 polypeptide allozyme having a methionine at amino acid 291 in place of valine (adenine at nucleotide 871) (protein)
chain: B1 chain with K10E, V291M

Test system: immunoreactive PAPSS2 protein
Test: Quantitative Western blot of recombinant PAPSS2 allozymes expressed in COS-1 cells (anti-His antibody)
Set-up: species or system human
Details: COS-1 cell preparations, gel loading corrected for transfection efficiency, relative to wild type
Description: Western Blot Analysis: Quantitative Western blot analysis was performed with recombinant PAPSS2 allozymes after expression in COS-1 cells. Since all constructs included an N-terminal His-tag, we used anti-His monoclonal antibodies (Invitrogen) to measure levels of immunoreactive PAPSS2 protein with the ECL detection system (Amersham Pharmacia, Piscataway, N.J.). The quantity of COS-1 cell preparation loaded on the gel for each allozyme was adjusted to achieve equal quantities of β-galactosidase activity, i.e., gel loading was adjusted to correct for transfection efficiency. The AMBIS Radioanalytic Imaging System, Quant Probe Version 4.31 (Ambis, Inc., San Diego, Calif.) was used to quantitate immunoreactive protein in each lane, and those data were expressed as a percentage of the intensity of the wild type PAPSS2 band on the gel.
To determine whether decreases in levels of variant allozyme PAPSS2 activity might be related to quantity of immunoreactive enzyme protein, quantitative Western blot analyses were conducted. […] Furthermore, these COS-1 cell preparations contained β-galactosidase activity similar to that observed with other recombinant allozymes. The enzyme activity results thus were not the result of low transfection efficiency.

Molecule	level of immunoreactive protein
B1	significant reduction in the level of immunoreactive protein
B2	did not result in a change in the level of immunoreactive protein
